In paper PMC5691054, “An unexpected protein interaction promotes drug resistance in leukemia” (Nature Communications, 2017):
Results are given in words; binding and its absence hold for the method and conditions named. For part of these data: Binding can be weak; no strength is given. For part of these data: Where a sequence is shown, tags or fusion partners need not be part of it. For part of these data: Binding seen in cells or lysates may run through a third protein. Blank lines part the entries; values can stand above or below the binder they belong to.

What was measured:
[1] = target: GST-ABCC4-C100 (purified C terminus of ABCC4, 100 amino acids) (human); test: pull-down; competition: TAT-ABCC4 peptides (1–4 μM) mixed with GST-ABCC4-C100 (50 nM) before addition of His-S-MPP1 (3.6 nM), 2 h at 24 °C; GST-ABCC4-C100 immobilized on glutathione beads, washed 3 times; immunoblot with rabbit anti-MPP1; both purified
[2] = target: ABCC4ΔC (ABCC4 lacking the PDZ motif), pAcGFP-tagged (human); test: proximity ligation; HEK293 cells transfected with ABCC4 or ABCC4ΔC and MPP1, fixed and permeabilized; anti-ABCC4 and anti-MPP1 antibodies, Duolink kit
[3] = target: ABCC4ΔC (ABCC4 lacking the PDZ motif), pAcGFP-tagged (human); test: co-IP; cells co-transfected with MPP1 and GFP-ABCC4 or GFP-ABCC4ΔC; immunoprecipitation with GFP-TRAP; blot with anti-MPP1

- binding [1]: binds
B1: His-S-MPP1 fusion protein (full-length MPP1) (protein, UniProt Q00013 1-466)
chain: MTLKASEGESGGSMHTALSDLYLEHLLQKRSRPEAVSHPLNTVTEDMYTNGSPAPGSPAQVKGQEVRKVRLIQFEKVTEEPMGITLKLNEKQSCTVARILHGGMIHRQGSLHVGDEILEINGTNVTNHSVDQLQKAMKETKGMISLKVIPNQQSRLPALQMFMRAQFDYDPKKDNLIPCKEAGLKFATGDIIQIINKDDSNWWQGRVEGSSKESAGLIPSPELQEWRVASMAQSAPSEAPSCSPFGKKKKYKDKYLAKHSSIFDQLDVVSYEEVVRLPAFKRKTLVLIGASGVGRSHIKNALLSQNPEKFVYPVPYTTRPPRKSEEDGKEYHFISTEEMTRNISANEFLEFGSYQGNMFGTKFETVHQIHKQNKIAILDIEPQTLKIVRTAELSPFIVFIAPTDQGTQTEALQQLQKDSEAIRSQYAHYFDLSLVNNGVDETLKKLQEAFDQACSSPQWVPVSWVY

- binding [2]: no binding
- binding [3]: no binding
B2: MPP1 expressed from an expression vector in HEK293 cells (protein, UniProt Q00013 1-466)
chain: B1 chain
